Test results taken from PMC6947481.

Chains of the proteins cited; added tags and fusions are not shown.
UniProt Q2EGB9, whole entry: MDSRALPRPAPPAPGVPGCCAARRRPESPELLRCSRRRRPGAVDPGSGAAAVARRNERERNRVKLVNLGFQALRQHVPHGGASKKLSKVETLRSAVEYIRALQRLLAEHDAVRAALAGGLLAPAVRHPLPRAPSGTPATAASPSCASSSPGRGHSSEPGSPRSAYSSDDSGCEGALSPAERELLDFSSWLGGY

Experiments:
ASCL2 (Bos taurus) [1] = target: ASCL2 (Bos taurus) (UniProt Q2EGB9); experiment: EMSA with antibody; conditions: antibody weakens the band; Per lane 1.0 uL 10x binding buffer, 0.5 uL 50% glycerol, 0.5 uL 100 mM MgCl2 (LightShift kit); 6% polyacrylamide gel, 0.5x buffer, 110 V 75 min; protein in an extract; label: 5' biotin on both strands
ASCL2 (Bos taurus) [2] = target: ASCL2 (Bos taurus) (UniProt Q2EGB9); experiment: competition with a labelled probe; conditions: unlabelled competitor against N4 probe; Per lane 1.0 uL 10x binding buffer, 0.5 uL 50% glycerol, 0.5 uL 100 mM MgCl2 (LightShift kit); 6% polyacrylamide gel, 0.5x buffer, 110 V 75 min; protein in an extract
ACSL1 (Bos taurus) [3] = experiment: EMSA supershift; conditions: Per lane 1.0 uL 10x binding buffer, 0.5 uL 50% glycerol, 0.5 uL 100 mM MgCl2 (LightShift kit); 6% polyacrylamide gel, 0.5x buffer, 110 V 75 min; protein in an extract; label: 5' biotin on both strands
ACSL1 (Bos taurus) [4] = experiment: competition with a labelled probe; conditions: unlabelled competitor against N1 probe; Per lane 1.0 uL 10x binding buffer, 0.5 uL 50% glycerol, 0.5 uL 100 mM MgCl2 (LightShift kit); 6% polyacrylamide gel, 0.5x buffer, 110 V 75 min; protein in an extract

## TAAGCCCTCCAGCAGCTGCTCCTCTGATTGGCT (double strand) [ASCL2-bio probe]
ASCL2 (Bos taurus) [1]
  binding result: binds

## TAAGCCCTCCAGCAGCTGCTCCTCTGATTGGCT (double strand) [ASCL2-jz competitor]
ASCL2 (Bos taurus) [2]
  binding result: binds

## TGGCTGGGTGGTTCAGCTGCTTCCCTGGAACAGA (double strand) [ACSL1-bio probe]
ACSL1 (Bos taurus) [3]
  binding result: binds

## TGGCTGGGTGGTTCAGCTGCTTCCCTGGAACAGA (double strand) [ACSL1-jz competitor]
ACSL1 (Bos taurus) [4]
  binding result: binds

The exact form of at least one protein or probe is not confirmed. Results from cells or extracts need not show a direct contact. For some of these results: At least one verdict was read from the data and is not stated in words by the source.
